Percent effect of library compounds

The chains behind the UniProt entries cited, without tags or fusion partners. Residues count along the entry.
UniProt P9WPC5, whole entry: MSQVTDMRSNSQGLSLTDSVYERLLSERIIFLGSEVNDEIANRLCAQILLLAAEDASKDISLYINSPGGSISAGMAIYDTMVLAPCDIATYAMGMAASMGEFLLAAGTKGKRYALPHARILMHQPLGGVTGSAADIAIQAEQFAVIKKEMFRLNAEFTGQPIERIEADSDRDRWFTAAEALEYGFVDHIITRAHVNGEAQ
UniProt P9WPC3, whole entry partner: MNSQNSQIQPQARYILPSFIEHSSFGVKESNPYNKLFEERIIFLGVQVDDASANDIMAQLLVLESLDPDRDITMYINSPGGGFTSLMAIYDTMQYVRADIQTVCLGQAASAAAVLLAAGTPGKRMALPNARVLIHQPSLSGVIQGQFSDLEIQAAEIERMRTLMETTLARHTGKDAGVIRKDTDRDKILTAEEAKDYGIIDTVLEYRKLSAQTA
UniProt Q4DA54, 1-478: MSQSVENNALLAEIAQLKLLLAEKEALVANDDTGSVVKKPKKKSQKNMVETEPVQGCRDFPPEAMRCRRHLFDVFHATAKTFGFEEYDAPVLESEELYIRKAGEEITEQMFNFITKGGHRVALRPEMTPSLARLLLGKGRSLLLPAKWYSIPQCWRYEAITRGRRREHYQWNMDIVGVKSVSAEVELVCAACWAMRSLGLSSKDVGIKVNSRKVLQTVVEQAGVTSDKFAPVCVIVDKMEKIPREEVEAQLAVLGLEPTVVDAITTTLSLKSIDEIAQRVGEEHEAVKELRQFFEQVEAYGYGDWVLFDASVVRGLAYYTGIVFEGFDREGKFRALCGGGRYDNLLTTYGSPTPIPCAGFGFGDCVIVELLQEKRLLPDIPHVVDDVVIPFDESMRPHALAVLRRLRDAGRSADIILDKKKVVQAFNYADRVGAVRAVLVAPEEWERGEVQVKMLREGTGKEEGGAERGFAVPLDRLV
UniProt Q8IDJ8, 1-583: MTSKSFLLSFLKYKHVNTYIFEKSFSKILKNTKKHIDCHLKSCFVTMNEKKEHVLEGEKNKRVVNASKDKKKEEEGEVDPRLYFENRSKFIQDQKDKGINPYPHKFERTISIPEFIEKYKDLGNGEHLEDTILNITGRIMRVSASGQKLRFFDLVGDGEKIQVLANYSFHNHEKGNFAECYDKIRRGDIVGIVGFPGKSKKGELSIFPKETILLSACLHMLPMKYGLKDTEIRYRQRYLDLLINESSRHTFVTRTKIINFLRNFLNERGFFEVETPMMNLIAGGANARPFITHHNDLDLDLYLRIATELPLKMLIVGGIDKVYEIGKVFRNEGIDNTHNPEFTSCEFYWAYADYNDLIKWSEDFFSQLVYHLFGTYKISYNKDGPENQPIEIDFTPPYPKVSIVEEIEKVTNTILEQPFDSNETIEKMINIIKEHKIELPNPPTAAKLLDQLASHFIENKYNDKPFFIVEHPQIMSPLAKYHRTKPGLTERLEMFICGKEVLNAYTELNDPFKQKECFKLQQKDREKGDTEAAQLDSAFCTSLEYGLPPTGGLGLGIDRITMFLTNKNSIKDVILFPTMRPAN
UniProt P9WNZ1, whole entry: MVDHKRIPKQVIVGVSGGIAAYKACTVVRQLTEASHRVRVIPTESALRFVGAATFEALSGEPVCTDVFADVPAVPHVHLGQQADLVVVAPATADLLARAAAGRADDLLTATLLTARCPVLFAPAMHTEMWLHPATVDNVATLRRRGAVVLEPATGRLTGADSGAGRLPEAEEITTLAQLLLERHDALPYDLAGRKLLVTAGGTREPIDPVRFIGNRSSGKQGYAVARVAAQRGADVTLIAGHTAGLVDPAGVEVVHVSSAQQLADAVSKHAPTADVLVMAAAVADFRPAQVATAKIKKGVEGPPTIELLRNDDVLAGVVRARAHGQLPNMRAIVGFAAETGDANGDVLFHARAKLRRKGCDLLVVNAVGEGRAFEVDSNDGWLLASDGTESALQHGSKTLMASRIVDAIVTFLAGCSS
UniProt I6X8D2, whole entry: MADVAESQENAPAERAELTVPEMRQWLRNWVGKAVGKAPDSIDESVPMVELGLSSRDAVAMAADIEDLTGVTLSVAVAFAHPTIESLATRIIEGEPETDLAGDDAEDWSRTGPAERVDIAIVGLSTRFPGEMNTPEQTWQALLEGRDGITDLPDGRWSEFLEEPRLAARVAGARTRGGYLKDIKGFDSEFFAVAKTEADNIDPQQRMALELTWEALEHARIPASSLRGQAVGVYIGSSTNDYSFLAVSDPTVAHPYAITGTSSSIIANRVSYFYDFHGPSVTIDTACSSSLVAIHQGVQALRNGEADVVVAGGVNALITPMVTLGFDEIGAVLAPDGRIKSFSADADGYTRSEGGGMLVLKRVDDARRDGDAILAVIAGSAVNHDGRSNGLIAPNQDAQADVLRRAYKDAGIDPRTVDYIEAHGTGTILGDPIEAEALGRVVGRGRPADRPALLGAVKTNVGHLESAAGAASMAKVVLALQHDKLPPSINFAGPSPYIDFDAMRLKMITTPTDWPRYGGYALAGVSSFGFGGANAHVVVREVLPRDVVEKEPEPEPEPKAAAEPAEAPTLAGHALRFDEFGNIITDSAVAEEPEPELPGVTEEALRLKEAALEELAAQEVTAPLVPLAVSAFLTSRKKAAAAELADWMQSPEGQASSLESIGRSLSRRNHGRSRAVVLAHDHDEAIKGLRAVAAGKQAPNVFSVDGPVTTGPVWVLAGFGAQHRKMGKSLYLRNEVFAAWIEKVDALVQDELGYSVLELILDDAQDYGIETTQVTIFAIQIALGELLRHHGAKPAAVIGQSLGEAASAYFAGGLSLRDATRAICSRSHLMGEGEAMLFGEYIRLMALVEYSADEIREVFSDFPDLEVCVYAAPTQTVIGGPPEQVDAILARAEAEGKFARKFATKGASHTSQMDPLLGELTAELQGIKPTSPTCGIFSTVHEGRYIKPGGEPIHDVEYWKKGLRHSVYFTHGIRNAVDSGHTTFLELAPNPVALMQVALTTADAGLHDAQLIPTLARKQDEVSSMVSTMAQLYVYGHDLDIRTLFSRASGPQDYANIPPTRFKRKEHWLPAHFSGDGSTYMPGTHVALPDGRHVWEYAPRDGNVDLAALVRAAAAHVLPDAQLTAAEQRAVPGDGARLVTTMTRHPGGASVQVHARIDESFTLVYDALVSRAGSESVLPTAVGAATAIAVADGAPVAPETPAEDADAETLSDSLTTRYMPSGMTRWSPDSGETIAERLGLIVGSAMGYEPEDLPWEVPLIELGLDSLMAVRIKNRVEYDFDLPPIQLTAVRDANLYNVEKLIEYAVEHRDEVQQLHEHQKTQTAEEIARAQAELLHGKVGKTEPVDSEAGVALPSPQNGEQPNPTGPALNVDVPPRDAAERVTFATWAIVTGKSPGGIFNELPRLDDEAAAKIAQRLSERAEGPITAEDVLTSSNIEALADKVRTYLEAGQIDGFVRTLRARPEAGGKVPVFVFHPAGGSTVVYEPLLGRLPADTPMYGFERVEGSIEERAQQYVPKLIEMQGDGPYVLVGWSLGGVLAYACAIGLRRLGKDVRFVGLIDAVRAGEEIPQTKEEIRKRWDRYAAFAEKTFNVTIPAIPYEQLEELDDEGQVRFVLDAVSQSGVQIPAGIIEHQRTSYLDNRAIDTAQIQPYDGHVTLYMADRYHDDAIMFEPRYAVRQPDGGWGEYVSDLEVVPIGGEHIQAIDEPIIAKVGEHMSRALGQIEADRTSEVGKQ

Measurements from “University of Dundee, Small-Polar-MMV Screening Library” (2021), ChEMBL document CHEMBL3988442.

Results are given as percent effect.
The controls that fix the scale are not given in the record; negative values are as filed.
This is an unselected part of the compounds tested.
Two or more numbers in one place are separate tests of the same structure; such repeats can differ widely.
A dash means the value is not listed here; it may have been measured.

ClpP1P2: 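ClpP1P2, Mycobacterium tuberculosis (UniProt P9WPC5 and UniProt P9WPC3). Protease assay of ClpP1P2, read by the AMC dye that it sets free. Compounds at 50 µM. Higher reads as stronger inhibition, judged from the few compounds that gave an IC50. Most other retested compounds had strongly negative values. Of about 69,000 compounds tested this way, about 10 (0.015%) reached 50% or more in at least one test.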
TcHisRS: 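Enzyme assay of histidyl-tRNA synthetase; the read-out is not stated. Target: Histidine-tRNA ligase, Trypanosoma cruzi CL Brener (UniProt Q4DA54). Concentration: 30 µM. Direction is inferred from retests: higher values go with stronger inhibition. Size under these conditions: about 69,000 compounds, about 31 of them at 50% or above in at least one test.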
PfKRS1: 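Enzyme assay of the cytosolic lysyl-tRNA synthetase in 384-well plates, read by luminescence. Target: Lysine-tRNA ligase, Plasmodium falciparum 3D7 (UniProt Q8IDJ8). Compounds at 30 µM. Higher reads as stronger inhibition, judged from the few compounds that gave an IC50. Of about 69,000 compounds tested this way, about 49 (0.071%) reached 50% or more in at least one test.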
CoaBC: 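Coenzyme A biosynthesis protein CoaBC, Mycobacterium tuberculosis (UniProt P9WNZ1). Enzyme assay of CoaBC with a phosphate dye (Biomol Green) read at 650 nm. Concentration: 30 µM. Direction is inferred from only a few compounds that gave an IC50; most scored high, so higher reads as stronger inhibition. Most strong results did not repeat in a second test. About 67,000 compounds were tested under these conditions; 0.06% (about 40) showed 50% or more at least once.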
Leishmania in macrophages: 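Cell assay of Leishmania donovani living inside macrophages; the read-out is not stated. Tested at 30 µM. Higher reads as stronger inhibition (inferred: compounds with an IC50 in retests scored well above the rest). About 69,000 compounds were tested under these conditions; 1.5% (about 1,000) showed 50% or more at least once.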
Pks13 thioesterase: 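Enzyme assay of the thioesterase domain of polyketide synthase 13; the read-out is not stated. Target: Polyketide synthase Pks13, Mycobacterium tuberculosis (UniProt I6X8D2). Tested at 30 µM. The record gives no direction; the compounds picked for IC50 retests had high values, so higher reads as stronger inhibition. About 67,000 compounds were tested under these conditions; 0.46% (about 300) showed 50% or more at least once.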

structure	ClpP1P2	TcHisRS	PfKRS1	CoaBC	Leishmania in macrophages	Pks13 thioesterase
CN1CCC(Oc2ccc(NC(=O)c3cccc(Cl)c3)cc2)CC1	-1.175	0	-0.6128	-37.27	37.64	-12.14
Cc1nc(C)c(CC(=O)Nc2ncc(C)s2)c(=O)[nH]1	3.846	4.943	0.8368	-4.521	-15.51	-3.961
COC(=O)[C@@H]1Cc2[nH]cnc2CN1Cc1cc2ccccc2o1	-3.235	1.98	1.627	5.192	-12.94	-11.32
Cc1csc(NC(=O)C2CCN(Cc3cccc4c3OCCO4)CC2)n1	18	9.901	-0.4706	-1.942	23.43	1.558
Cc1nc(CN2CCC3(CCN(Cc4cnn(C)c4)CC3)C2=O)cs1	-7.815	0	-3.066	3.329	-	-24.97
O=C1Nc2ccccc2C12CCCN(Cc1ccncc1)C2 (centres undefined)	-22.55	0.9662	8.048	6.087	4.868	-36.75
Cc1ccc(-n2cc(CN3CCOCC3)c(-c3cccc(C)c3)n2)cc1	5.553	10.98	4.033	3.719	-0.09775	9.658
Cc1ccc(CC(=O)N(C)CC2(O)CCCN(c3ccccn3)C2)s1 (centres undefined)	-0.7984	4.494	1.711	3.594	1.977	5.825
c1ccc(OCCNc2ncnc3sc4c(c23)CCNC4)cc1	-1.317	-6.494	2.213	3.171	9.289	18.28
O=C(O)c1cnc(-c2cccc3c2CCNC3)c(Cl)c1	-0.4091	6.468	4.191	4.198	17.31	-15.1
COc1ccc(CNCc2ccnc(N3CCOCC3)c2)c(OC)c1	6.25	6.015	5.587	5.575	24.56	-2.994
CN(Cc1ccccc1)c1ncccc1CNC1CN2CCC1CC2 (centres undefined)	-16.34	42.53	3.797	1.353	21.65	38.4
CNc1cc(C2CN(Cc3cccnc3NC)CCO2)nc(C)n1 (centres undefined)	-38.91	4.215	-0.5536	-5.825	36.25	-3.153
Cc1nc2sccn2c1C(=O)N1CCc2c(nc(N(C)C)[nH]c2=O)C1	-4.311	10.98	0.6646	0.4132	14.89	-
COc1cccc(N2CCN(CC(O)c3ccc(C)cc3)CC2)c1 (centres undefined)	2.666	-1.087	7.812	8.502	30.17	-26.64
c1cnnc(N2CCCC(NCc3nc(C4CC4)no3)C2)c1 (centres undefined)	-12.38	15.06	-1.116	-39.09	6.702	-8.961
O=C(O)C(F)(F)F.[H][C@@]12CCN(Cc3ccccc3OC)C[C@]1([H])O[C@@H](C(=O)N1CCCC1)C2	-	-	-	-	1.432 & 1.53	-
N#Cc1ncn(CCS(=O)(=O)c2ccc(Cl)cc2)n1	-4.949	3.448	4.851	5.063	7.796	4.117
O=C(CNC(=O)N(Cc1ccoc1)C1CCCCC1)N1CCCC1	3.945	3.03	7.916	7.131	3.967	-34.19
O=C(NCc1nncn1-c1ccccc1)C1CCCCC1	-19.4	4.36	0.1482	-2.445	-20.63	-9.287
Cn1cc(NC(=O)CCCc2cccs2)c(=O)n(C)c1=O	-8.223	8.671	6.828	2.73	1.266	-20.9
Cc1cc(C)n(CC2CN(CC(=O)Nc3cccnc3)CCO2)n1 (centres undefined)	-27.67	-0.4464	5.442	1.531	15.85	-0.0494
CN1CC2(CCN(CC3CC3)CC2)COc2ccccc2S1(=O)=O.O=C(O)C(F)(F)F	-	-	-	-	-5.987	-
Cc1nc2ccccc2n1Cc1cc(C(=O)N2C[C@@H](C)O[C@@H](C)C2)no1	-11.85	3.614	0.7514	-0.9901	38.37	-6.935
CC(c1nc(C2CC2)no1)N1CCN(CCN2CCCC2=O)CC1 (centres undefined)	-4.001	4.07	2.989	5.482	25.82	2.365
c1cnc(N2CCOCC3(CCN(c4cnccn4)CC3)C2)nc1	-2.691	5.155	4.87	0.7389	9.987	-11.53
CCS(=O)(=O)CC(=O)Nc1ccc2oc(C3CC3)nc2c1	-3.309	5.732	-1.354	-	-0.07019	-0.2818
CNc1nc(C2CCCN2)nc2c1CCN(S(=O)(=O)C1CCCCC1)C2.Cl (centres undefined)	-	-	-	-	0.1888	-
CCCc1nc(C(C)(C)NC(=O)C2CC(=O)N(CC)C2)no1 (centres undefined)	-3.115	4.678	1.081	3.061	17.46	8.143
CC(C)(C)CN1CCOC[C@H]1c1nc(-c2cccc(F)c2)c[nH]1	0.4694	14.85	5.736	6.998	13.49	-55
CN(C)CCNC(=O)CCC1CCN(C(=O)c2ccc(Cl)cc2O)CC1	-8.719	2.609	2.456	1.517	25.29	-31.07
O=C1Nc2ccccc2CNC12CCN(CC1CC1)CC2	-9.428	-0.5917	3.688	3.947	-3.872	-10.54
Cc1cc(N)nc(C2(C)CCCN2C(=O)c2cnccn2)n1 (centres undefined)	5.894	-4.494	-1.635	-1.859	-7.43	-14.16
CS(=O)(=O)NC1CCCN(Cc2ccc(OCc3ccccn3)cc2)C1 (centres undefined)	-0.5968	3.247	0.7493	3.99	17.07	-5.904
CN1CCN(C(=O)CCc2ccccc2)Cc2cccnc21	-2.06	9.901	6.965	-1.142	-	-23.94
CN1CCC(c2cccc(CCC(=O)NCC(N)=O)n2)CC1	14.29	7.447	3.242	4.167	1.032	-0.1059
CS(=O)(=O)N1C[C@@H](F)[C@@H](OCc2nc3ccccc3o2)C1	-5.256	3.261	-2.093	4.636	11.22	18.13
Cc1cc(C)nc(-n2nc(C)c3c2NC(=O)CSC3c2cnn(C)c2)n1 (centres undefined)	-7.072	-0.5848	3.758	2.273	8.356	-57.36
Cc1cc(C[C@@H]2COC[C@H]2NCc2ccc(C(F)(F)F)cc2)on1.O=C(O)CC(O)(CC(=O)O)C(=O)O	-	-	-	-	-5.885	-

3 of the entries, repeated:

With N#Cc1ncn(CCS(=O)(=O)c2ccc(Cl)cc2)n1 the screen gave ClpP1P2: -4.949%; TcHisRS: 3.448%; PfKRS1: 4.851%; CoaBC: 5.063%; Leishmania in macrophages: 7.796%; Pks13 thioesterase: 4.117%.
With O=C1Nc2ccccc2C12CCCN(Cc1ccncc1)C2 (centres undefined) the screen gave ClpP1P2: -22.55%; TcHisRS: 0.9662%; PfKRS1: 8.048%; CoaBC: 6.087%; Leishmania in macrophages: 4.868%; Pks13 thioesterase: -36.75%.
With Cc1nc2ccccc2n1Cc1cc(C(=O)N2C[C@@H](C)O[C@@H](C)C2)no1 the screen gave ClpP1P2: -11.85%; TcHisRS: 3.614%; PfKRS1: 0.7514%; CoaBC: -0.9901%; Leishmania in macrophages: 38.37%; Pks13 thioesterase: -6.935%.